B1: anti-PSMA heavy-chain antibody clone ID 325748 (antibody, V domains shown)
VH: QVQLVESGGGVVQPGRSLRLSCAASGFSFSSYGMHWVRQAPGKGLEGVAVIWYDGSNRYYADSVKGRFTISRDNSKNTLYLQMNSLRAEDTAVYYCAREPRIGYYYESSGYYSLDYRGQGTLVTVSS
B2: anti-PSMA heavy-chain antibody clone ID 325940 (antibody, V domains shown)
VH: QVQLVESGGGVVQPGRSLRLSCAASGFIFRSYGMHWVRQAPGKGPEWVAVIWYDGSNKYYADSVKGRFTISRDNSKNTLYLQMNSLRAEDTAVYYCAREPRIGYYYESSGYYSLDYRGQGTLVTVSS
B3: anti-PSMA heavy-chain antibody clone ID 325932 (antibody, V domains shown)
VH: QVQLVESGGGVVQPGRSLRLSCAASGFSFSSYGMHWVRQAPGKGLEGVAVIWYDGSNRYYADSVKGRFTISRDNSKNTLYLQMNSLRAEDTAVYYCAREPRIGYYYESSGYYSLDYRGQGTLVTVSS
B4: anti-PSMA heavy-chain antibody clone ID 345463 (antibody, V domains shown)
VH: QVQLVESGGGVVQPGRSLRLSCAASGFIFRSYGMHWVRQAPGKGPEWVAVIWYDGSNKYYADSVKGRFTISRDNSKNTLYLQMNSLRAEDTAVYYCAREPRIGYYYESSGYYSLDYRGQGTLVTVSS

Protein sequences, listed by entry. Tags and fused reporters are not part of them.
UniProt Q04609: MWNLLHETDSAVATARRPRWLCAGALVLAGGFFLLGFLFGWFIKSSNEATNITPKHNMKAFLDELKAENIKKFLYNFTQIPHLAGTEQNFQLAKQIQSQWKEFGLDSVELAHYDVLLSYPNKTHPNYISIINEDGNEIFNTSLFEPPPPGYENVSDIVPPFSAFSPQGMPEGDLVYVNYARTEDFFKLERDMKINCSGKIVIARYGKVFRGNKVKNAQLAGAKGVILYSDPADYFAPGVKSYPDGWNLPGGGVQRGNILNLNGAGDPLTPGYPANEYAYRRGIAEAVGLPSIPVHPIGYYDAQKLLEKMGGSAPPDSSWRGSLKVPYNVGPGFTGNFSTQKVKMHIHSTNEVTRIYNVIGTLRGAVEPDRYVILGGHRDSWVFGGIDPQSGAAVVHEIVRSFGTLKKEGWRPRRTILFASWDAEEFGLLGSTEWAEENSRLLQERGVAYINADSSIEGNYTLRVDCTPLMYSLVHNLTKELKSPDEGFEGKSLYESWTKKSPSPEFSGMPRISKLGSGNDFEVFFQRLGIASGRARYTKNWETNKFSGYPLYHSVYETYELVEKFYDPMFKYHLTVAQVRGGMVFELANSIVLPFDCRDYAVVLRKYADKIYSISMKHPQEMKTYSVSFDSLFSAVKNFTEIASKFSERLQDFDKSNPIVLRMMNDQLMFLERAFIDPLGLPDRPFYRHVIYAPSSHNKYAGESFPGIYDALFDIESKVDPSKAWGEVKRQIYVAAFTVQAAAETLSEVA

These results are taken from patent US20250066476A1.

No constants are given. Whether binding was seen depends on the method and setting. Some results given as binding are weak or reduced against the parent protein; the word gives no strength.

The test has as its target human PSMA (Prostate Specific Membrane Antigen, Glutamate Carboxypeptidase II) (human) (UniProt Q04609). Description: ELISA protein and cell-binding assays. For orientation: An ELISA detects its analyte on a solid surface through an enzyme-linked reagent.
For B1, the binding result was “binds”. The entry for B2 is “binds”. In the case of B3, the binding result was “binds”. In the case of B4, the binding entry is reported as “binds”.
